# In PubChem BioAssay AID540256 (National Center for Advancing Translational Sciences (NCATS), 2011):
# Screen size: about 300,000 compounds; about 3,700 (1.2%) were called active. Inconclusive results, whose numbers are uncertain, are shown with a selection of clear calls. Calls come from the whole dose curve; tested in HEK293 cells. Potencies of inconclusive entries are doubtful fits and often do not repeat.
# Test: qHTS for Inhibitors of binding or entry into cells for Lassa Virus; note: nearly all actives have a fitted effect of over 50% in size
# Details: Lassa virus pseudotype entry inhibition, cell reporter; series mostly up to 37.9 µM
# Potency is the fitted concentration of half-maximal effect.
row,SMILES,Potency
1,C/C(=N\Nc1ccc([N+](=O)[O-])cc1)c1ccc(-n2nncc2C)cc1,"inconclusive: 25.1 µM [inhibitor, single point]"
2,CCOc1ccc(NC(=O)CN(Cc2ccccc2)S(=O)(=O)c2ccc3nc(C)sc3c2)cc1,"inconclusive: 20 µM [inhibitor, partial curve, poor fit]"
3,CCCNC(=O)c1ccc(SC)cc1OC,"inconclusive: 29.1 µM [activator, single point]"
4,O=S(=O)(Cc1ccc(Cl)cc1)c1ccccc1-c1nnc(-c2ccccc2)o1,"inconclusive: 8.91 µM [inhibitor, partial curve, poor fit]"
5,COc1ccc(-c2cc(C(F)(F)F)nc(N3CCCCC3)n2)cc1OC,"inconclusive: 29.1 µM [inhibitor, single point]"
6,CN1CCc2nc3sc(C(=O)c4ccc(F)cc4)c(N)c3cc2C1,"inconclusive: 11.2 µM [activator, partial curve]"
7,COc1ccc(/C=C/C=C2C(=O)NC(=S)NC2=O)cc1,"inconclusive: 22.4 µM [inhibitor, single point]"
8,CCOC(=O)C(C(=O)OCC)C1OC(=O)c2cc3c(cc21)C(=O)OC3C(C(=O)OCC)C(=O)OCC (stereo not given),"inconclusive: 25.1 µM [inhibitor, partial curve, poor fit]"
9,O=S(=O)(c1ccc(F)cc1)N1CCN(CC(O)COCc2ccccc2)CC1 (stereo not given),"inconclusive: 35.5 µM [inhibitor, single point]"
10,CCC(C)S(=O)(=O)c1oc(-c2cccs2)nc1S(=O)(=O)c1ccccc1 (stereo not given),"inconclusive: 35.5 µM [inhibitor, single point]"
11,Cc1cc(Cl)c(OCCCn2ccnc2)c(Br)c1,"inconclusive: 29.1 µM [activator, partial curve, poor fit]"
12,N/N=C(/Cc1nc2ccccc2[nH]1)c1ccc([N+](=O)[O-])cc1,inactive
13,Cc1c(Cl)cccc1NC(=O)CCS(=O)(=O)c1ccc2c(c1)CC(C)N2C(=O)C1CC1 (stereo not given),"inconclusive: 7.94 µM [inhibitor, partial curve, poor fit]"
14,O=C(Nc1ccc(F)cc1F)NC1CCCCCCC1,"inconclusive: 4.47 µM [inhibitor, full curve, poor fit]"
15,COc1cc(NC(=O)C2CCN(S(=O)(=O)c3ccc4[nH]c(=O)oc4c3)CC2)cc(OC)c1,"inconclusive: 11.2 µM [inhibitor, single point]"
16,CCOc1ccc2nc(Cl)c(C3CC(c4ccc(C)cc4)=NN3C(=O)CCC(=O)O)cc2c1 (stereo not given),inactive
17,CCOC(=O)N1CCN(C(=O)COCc2cc(-c3ccc4c(c3)OCO4)on2)CC1,"inconclusive: 7.94 µM [inhibitor, partial curve, poor fit]"
18,CCCC(NS(=O)(=O)c1ccc(OC)cc1)C(=O)O (stereo not given),"inconclusive: 29.1 µM [inhibitor, single point]"
19,COc1cc(SC#N)ccc1N=Cc1c(C)[nH]n(-c2ccc(C)c(C)c2)c1=O,active: 11.2 µM
20,O=C(O)c1ccccc1-c1nc2ccccc2[nH]1,inactive
21,CCOc1ccc(-c2cnc3n2CCCCC3)cc1,inactive
22,COc1ccc(NC(=O)CSc2nnc(Cc3ccccc3)c(=O)n2N)cc1OC,inactive
23,Cn1ccc(C(=O)N/N=C/c2ccccc2[N+](=O)[O-])n1,inactive

row,SMILES,Potency
1,CNC(=O)CN1C(=O)COc2ccc(S(=O)(=O)N3CCCCCC3)cc21,inactive
2,Nc1ccc2nc(-c3cccc(-c4nc5ccc(N)cc5[nH]4)c3)[nH]c2c1,inactive
3,CCOC(=O)N1CCc2c(sc3c2c(=O)n(Cc2ccccc2)c(=O)n3CC(=O)Nc2ccc(F)cc2)C1,inactive
4,O=C(CCNc1cc(Cl)cc(Cl)c1)c1cccs1,"inconclusive: 0.116 µM [inhibitor, full curve, poor fit]"
5,Cc1csc(NC(=O)Nc2ccc(Cl)cc2)n1,inactive
6,CCOc1ccc(N2CC(NC(=O)c3ccc(Cl)cc3)CC2=O)cc1 (stereo not given),inactive
7,Cc1c(C(=O)OC(C)C)sc(NC(=O)C2CCCO2)c1C(=O)OC(C)C (stereo not given),"inconclusive: 2.06 µM [inhibitor, full curve]"
8,O=C1CCC(=O)N1c1ccc(-c2nc3ccccc3s2)cc1,inactive
9,CN(c1ccc(F)cc1)S(=O)(=O)N1CCCC(C(=O)NCc2ccccc2Cl)C1 (stereo not given),"inconclusive: 35.5 µM [inhibitor, single point]"
10,CC(=O)c1cccc(NS(=O)(=O)c2c(C(=O)N3CCCCCC3)c(C)n(C)c2C)c1,inactive
11,O=C(Nc1cccc(-c2cnc3ccccc3n2)c1)C1CC(=O)N(c2ccccc2)C1 (stereo not given),"inconclusive: 1.58 µM [activator, partial curve, poor fit]"
12,COc1ccc(Cc2noc(CN3CCN(Cc4cccc(Cl)c4)CC3)n2)cc1OC,"inconclusive: 14.1 µM [inhibitor, single point]"
13,COc1ccc2c(c1)c(N1CCCC1=O)c(C(=O)Nc1ccc(OC)c(Cl)c1)n2C,"inconclusive: 6.31 µM [activator, single point]"
14,Cc1cc(NC(=O)CCC(=O)N(c2cccc(F)c2)C(C(=O)NC2CCCC2)c2ccccc2)no1 (stereo not given),inactive
15,CCOc1ccc(C(=O)/C=C/Nc2ccc(S(=O)(=O)N=C(N)N)cc2)cc1,inactive
16,Cc1ccc2c(C)nc(Nc3nc(CSc4nnnn4-c4ccccc4)cc(=O)[nH]3)nc2c1,"inconclusive: 0.164 µM [activator, full curve, poor fit]"
17,S=C(Nc1ccccn1)c1ccccn1,"inconclusive: 35.5 µM [inhibitor, single point]"
18,COc1ccc(C(=O)CN2C(=O)NC3(CCCc4ccccc43)C2=O)cc1 (stereo not given),inactive
19,CN1C2CCC1C(COC(=O)c1ccccc1)C(O)C2 (stereo not given),inactive
20,O=C(NC(=S)Nc1ccc2ncccc2c1)c1ccccc1,"inconclusive: 1.26 µM [activator, full curve, poor fit]"
21,CSc1ccccc1OCc1cc(C(=O)NCCc2ccco2)no1,inactive
22,CC(C)(C)c1ccc(C(=O)NCc2nnc(SCC(=O)N3CCCc4ccccc43)n2-c2ccccc2)cc1,"inconclusive: 20 µM [inhibitor, partial curve, poor fit]"

# Some of these compounds in order of molecular weight, low to high:
row,SMILES,Potency
21,CCOc1ccc(-c2cnc3n2CCCCC3)cc1,inactive
12,N/N=C(/Cc1nc2ccccc2[nH]1)c1ccc([N+](=O)[O-])cc1,inactive
4,O=S(=O)(Cc1ccc(Cl)cc1)c1ccccc1-c1nnc(-c2ccccc2)o1,"inconclusive: 8.91 µM [inhibitor, partial curve, poor fit]"
